Patent US20260234227A1
Results are given in words; binding and its absence hold for the method and conditions named. Some entries that bind do so weakly or less than the wild type.

Molecular target: T1, vasoactive intestinal peptide (VIP) (human)
T1 sequence (peptide): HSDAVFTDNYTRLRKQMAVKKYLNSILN
Experiment: SPR (Biacore), captured antibody, 37.5 nM peptide injected at 37 C, relative response after 15 sec dissociation

binding: binds
B1: anti-PACAP antibody 890C (antibody, human IgG4 S228P, kappa, V domains shown)
VH: EVQLVQSGAEVKKPGSSVKVSCKASGGTFSDVYMHWVRQAPGQGLEWMGLIYPIFADTRYAQKFQGRVTITADESTSTAYMELSSLRSEDTAVYYCAIDQDGSFAYWGQGTLVTVSS
VL: DIVMTQSPDSLAVSLGERATINCKSSQSLLDADGKTYLNWLQQKPGQPPKRLIYWASTRESGVPDRFSGSGSGTDFTLTISSLQAEDVAVYYCWQGTWFDLTFGGGTKVEIKR
